The supplement of paper PMC4604168 (melanoma cell lines)
The other results are listed elsewhere or left out. Many values rest on one well or one pass, so single values are uncertain.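 Cells were imaged in 1,536-well plates, and nuclei stained with an antibody against cleaved PARP were counted against all DNA-stained nuclei to give the apoptosis fraction. Screening doses were chosen to leave most cells alive, and resting and induced cleaved-PARP levels differ strongly between cell lines.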

Key:
Test in all cases: cleaved PARP positive nuclei fraction relative to DMSO control; melanoma cells; higher = more apoptosis
Conditions in all cases: library dose: low library concentration; 72 h
501Mel = test system: 501Mel
A101D = test system: A101D
A2058 = test system: A2058
A375 = test system: A375
C32 = test system: C32
CBRC013 = test system: CBRC013 (line from a melanoma biopsy)
CBRC014 = test system: CBRC014 (line from a melanoma biopsy)
CBRC016 = test system: CBRC016 (line from a melanoma biopsy)
CBRC017 = test system: CBRC017 (line from a melanoma biopsy)
CBRC034 = test system: CBRC034 (line from a melanoma biopsy)
COLO792 = test system: COLO792
COLO800 = test system: COLO800
COLO829 = test system: COLO829
G361 = test system: G361
IPC-298 = test system: IPC-298
IST-MEL1 = test system: IST-MEL1
LB2518-MEL = test system: LB2518-MEL
LOXIMVI = test system: LOXIMVI

Row | SMILES | cleaved PARP positive nuclei fraction (501Mel) [%] | cleaved PARP positive nuclei fraction (A101D) [%] | cleaved PARP positive nuclei fraction (A2058) [%] | cleaved PARP positive nuclei fraction (A375) [%] | cleaved PARP positive nuclei fraction (C32) [%] | cleaved PARP positive nuclei fraction (CBRC013) [%] | cleaved PARP positive nuclei fraction (CBRC014) [%] | cleaved PARP positive nuclei fraction (CBRC016) [%] | cleaved PARP positive nuclei fraction (CBRC017) [%] | cleaved PARP positive nuclei fraction (CBRC034) [%] | cleaved PARP positive nuclei fraction (COLO792) [%] | cleaved PARP positive nuclei fraction (COLO800) [%] | cleaved PARP positive nuclei fraction (COLO829) [%] | cleaved PARP positive nuclei fraction (G361) [%] | cleaved PARP positive nuclei fraction (IPC-298) [%] | cleaved PARP positive nuclei fraction (IST-MEL1) [%] | cleaved PARP positive nuclei fraction (LB2518-MEL) [%] | cleaved PARP positive nuclei fraction (LOXIMVI) [%]
1 | O=C(Nc1cccc(Cl)c1)Nc1ncc(CCNc2ncnc3ccsc23)s1 + O=c1cc(-c2cccc3c2Sc2ccccc2S3)oc(N2CCOCC2)c1 [KU55933] (first compound 0.0008 µM, partner dose 1 µM) | 228 | 197 | 191 | 6.62 | 43.3 | 107 | 80.4 | 51.5 | 101 | 32.6 | 67.2 | 305 | 104 | 143 | 47.1 | 123 | 122 | 20.9
2 | Cn1nnc2c(C(N)=O)ncn2c1=O [temozolomide] + COc1cc2ncnc(Nc3ccc(Oc4ccccc4)cc3)c2cc1OC [SrcI1] (first compound 2 µM, partner dose 2 µM) | 110 | 121 | 75.4 | 47.6 | 60.5 | 177 | 115 | 99.8 | 54.9 | 86.2 | 50.1 | 162 | 73 | 138 | 93.3 | 64.8 | 150 | 88.1
3 | CC(C)(C)c1cnc(CSc2cnc(NC(=O)C3CCNCC3)s2)o1 + Oc1nc(-c2ccc(C(F)(F)F)cc2)nc2c1CSCC2 [XAV939] (first compound 0.01 µM, partner dose 2 µM) | 66.1 | 50.5 | 247 | 54.4 | 146 | 247 | 103 | 58.4 | 87 | 77.9 | 199 | 88.3 | 88 | 58.1 | 56.9 | 273 | 228 | 181
4 | C[C@]1(c2nc3c(C(N)=O)cccc3[nH]2)CCCN1 [Veliparib] + COc1ccc(-c2ccc3c(N4CCOCC4)nc(N4C[C@@H](C)O[C@@H](C)C4)nc3n2)cc1CO [KU0063794] (first compound 1.4 µM, partner dose 0.02 µM) | 99.1 | 564 | 110 | 80.8 | 55.5 | 124 | 87.4 | 48 | 155 | 91.4 | 89.9 | 83.4 | 76.3 | 226 | 27.8 | 83.8 | 97.1 | 91.6
5 | CO[C@@H]1[C@H](N(C)C(=O)c2ccccc2)C[C@H]2O[C@]1(C)n1c3ccccc3c3c4c(c5c6ccccc6n2c5c31)C(=O)NC4 [Midostaurin] + COc1ccc(COc2ccc(Cc3cnc(N)nc3N)cc2OC)cc1 [GW2580] (first compound 0.08 µM, partner dose 1 µM) | 177 | 334 | 65.6 | 107 | 35.5 | 61.1 | 105 | 185 | 60 | 91.9 | 144 | 134 | 88.4 | 92.5 | 178 | 184 | 197 | 190
6 | Cc1ccc(NC(=O)c2cccc(N(C)C)c2)cc1NC(=O)c1ccc(O)cc1 + O=C(O)C(=O)Nc1sc2c(c1C(=O)O)CCNC2 [TCS401] (first compound 2 µM, partner dose 1.66667 µM) | 184 | 253 | 54.9 | 53.5 | 37 | 125 | 86.3 | 140 | 79.6 | 390 | 68.3 | 46.2 | 230 | 30.3 | 52.2 | 129 | 82.5 | 58.3
7 | OCCn1cc(-c2cnc3nnn(Cc4ccc5ncccc5c4)c3n2)cn1 + c1cc(-c2cnn3cc(-c4ccc(OCCN5CCCCC5)cc4)cnc23)ccn1 [Dorsomorphin] (first compound 1 µM, partner dose 0.4 µM) | 78.8 | 186 | 190 | 50.6 | 86.2 | 130 | 124 | 24.1 | 141 | 71.9 | 105 | 91 | 89.6 | 21.5 | 38.7 | 55.9 | 76.7 | 34.3
8 | OCCn1cc(-c2cnc3nnn(Cc4ccc5ncccc5c4)c3n2)cn1 + COc1cc2ncnc(Nc3ccc(Oc4ccccc4)cc3)c2cc1OC [SrcI1] (first compound 1 µM, partner dose 2 µM) | 72.2 | 55.2 | 83.2 | 36 | 61.2 | 79.6 | 113 | 22.1 | 125 | 89.1 | 85.9 | 92.2 | 122 | 99.7 | 83.7 | 27.7 | 70.6 | 130
9 | C=CCn1c(=O)c2cnc(Nc3ccc(N4CCN(C)CC4)cc3)nc2n1-c1cccc(C(C)(C)O)n1 + CCN(CC)CCCCNc1ncc2cc(-c3cc(OC)cc(OC)c3)c(NC(=O)NC(C)(C)C)nc2n1 [PD173074] (first compound 0.02 µM, partner dose 0.1 µM) | 140 | 91.4 | 124 | 439 | 118 | 128 | 126 | 214 | 98.7 | 65.5 | 107 | 122 | 129 | 218 | 57.6 | 86 | 123 | 36.8
